What all share (test): affinity purification with mass spectrometry
The target in experiment [1] is T1, Lap2-YFP-FLAG-His6 (S. pombe) (UniProt O94544).
T1 sequence: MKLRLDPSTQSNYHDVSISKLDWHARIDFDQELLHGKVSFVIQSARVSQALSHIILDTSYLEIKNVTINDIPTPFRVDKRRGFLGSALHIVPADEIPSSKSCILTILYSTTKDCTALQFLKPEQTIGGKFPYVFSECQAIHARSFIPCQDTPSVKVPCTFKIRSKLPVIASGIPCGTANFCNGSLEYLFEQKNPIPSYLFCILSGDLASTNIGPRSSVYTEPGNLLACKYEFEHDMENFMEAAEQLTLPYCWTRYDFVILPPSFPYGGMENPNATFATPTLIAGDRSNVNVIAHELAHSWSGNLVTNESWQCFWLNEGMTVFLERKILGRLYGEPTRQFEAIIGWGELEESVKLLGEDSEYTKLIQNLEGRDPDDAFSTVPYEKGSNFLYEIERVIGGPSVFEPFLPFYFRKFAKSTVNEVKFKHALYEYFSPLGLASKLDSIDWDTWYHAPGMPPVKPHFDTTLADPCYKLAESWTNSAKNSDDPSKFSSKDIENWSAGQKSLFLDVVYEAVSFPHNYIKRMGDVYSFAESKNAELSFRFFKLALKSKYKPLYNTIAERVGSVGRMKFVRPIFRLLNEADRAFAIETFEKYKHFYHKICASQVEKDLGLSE

Chains of the proteins cited; added tags and fusions are not shown. Lines headed by an entry give the natural chain unless they say otherwise; changes in a name come on top.
UniProt Q9UT61: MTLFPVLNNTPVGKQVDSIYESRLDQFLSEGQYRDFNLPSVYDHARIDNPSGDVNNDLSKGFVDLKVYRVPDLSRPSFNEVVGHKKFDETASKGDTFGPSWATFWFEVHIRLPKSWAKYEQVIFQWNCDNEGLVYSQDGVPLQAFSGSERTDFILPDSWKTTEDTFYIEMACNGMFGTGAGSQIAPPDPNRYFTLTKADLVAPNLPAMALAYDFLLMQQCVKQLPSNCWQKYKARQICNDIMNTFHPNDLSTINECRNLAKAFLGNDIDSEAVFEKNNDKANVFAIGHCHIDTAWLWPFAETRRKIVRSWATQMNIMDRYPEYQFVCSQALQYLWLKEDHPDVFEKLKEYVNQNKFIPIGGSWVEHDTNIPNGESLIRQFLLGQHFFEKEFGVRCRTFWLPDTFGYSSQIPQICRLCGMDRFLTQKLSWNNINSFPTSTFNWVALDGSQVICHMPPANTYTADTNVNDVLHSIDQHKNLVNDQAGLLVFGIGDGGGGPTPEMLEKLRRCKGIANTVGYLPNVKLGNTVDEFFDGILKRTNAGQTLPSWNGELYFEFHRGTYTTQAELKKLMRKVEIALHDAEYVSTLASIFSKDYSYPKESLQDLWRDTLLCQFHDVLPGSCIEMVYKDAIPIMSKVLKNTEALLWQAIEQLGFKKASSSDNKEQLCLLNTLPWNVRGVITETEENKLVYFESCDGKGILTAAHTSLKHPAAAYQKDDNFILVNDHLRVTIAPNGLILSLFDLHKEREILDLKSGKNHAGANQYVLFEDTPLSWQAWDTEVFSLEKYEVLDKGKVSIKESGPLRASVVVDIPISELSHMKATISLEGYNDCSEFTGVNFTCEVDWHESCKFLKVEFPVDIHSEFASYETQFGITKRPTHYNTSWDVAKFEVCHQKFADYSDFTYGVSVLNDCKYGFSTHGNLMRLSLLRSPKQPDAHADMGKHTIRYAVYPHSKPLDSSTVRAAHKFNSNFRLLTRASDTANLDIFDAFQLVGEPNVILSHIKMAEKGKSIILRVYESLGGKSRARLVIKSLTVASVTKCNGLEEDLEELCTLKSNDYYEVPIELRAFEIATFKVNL

For experiment [2], the target named is T2, Nbr1-YFP-FLAG-His6 (S. pombe) (UniProt Q9P792).
T2 sequence: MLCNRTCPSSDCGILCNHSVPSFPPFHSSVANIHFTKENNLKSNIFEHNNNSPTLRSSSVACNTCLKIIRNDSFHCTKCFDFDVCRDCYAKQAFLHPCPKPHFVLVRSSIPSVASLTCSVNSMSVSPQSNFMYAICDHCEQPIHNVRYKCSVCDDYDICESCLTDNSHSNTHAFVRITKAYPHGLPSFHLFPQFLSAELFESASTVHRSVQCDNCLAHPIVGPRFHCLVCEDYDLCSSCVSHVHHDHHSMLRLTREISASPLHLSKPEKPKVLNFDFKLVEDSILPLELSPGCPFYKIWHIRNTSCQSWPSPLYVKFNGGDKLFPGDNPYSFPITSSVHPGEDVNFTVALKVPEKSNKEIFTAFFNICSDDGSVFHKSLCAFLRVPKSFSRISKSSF

For the next experiment, the target named is Ape2-Venus (S. pombe).

These are yes or no findings as the source states them, for the method shown. Binding seen in cells or lysates may run through a third protein. A yes stands for co-enrichment or nearness to the bait. Other partners may have been found. For some of these results: No binding means not detected with the bait. For some of these results: Tags and fused reporters may be left off the sequences shown.

Take “Ape2 (endogenous) (S. pombe (endogenous in S. pombe)) (enzyme)”: the binding result in experiment [1] and in experiment [2] was “binds” each time.
Take “Ape4 (endogenous) (S. pombe (endogenous in S. pombe)) (enzyme)”: the binding result in experiment [1] is listed as “no binding”; in experiment [2], “binds”.
The like results for “Ams1 (endogenous) (from UniProt Q9UT61) (enzyme)” were, in that order, “no binding” and “binds”.

B1: Nbr1 (endogenous) (protein, UniProt Q9P792 1-397)
chain: T2 sequence
As to B1, the binding entry (with Ape2-Venus (S. pombe); in experiment [1]) was “binds” in each case.

B2: Lap2 (endogenous) (enzyme, UniProt O94544 1-612)
chain: T1 sequence
For the molecule B2, the binding result (with Ape2-Venus (S. pombe); in experiment [2]) was “binds” each time.

These data come from article doi:10.1101/2021.02.07.430097.
